From article PMC11597210, “A Comprehensive Evaluation of a Coumarin Derivative and Its Corresponding Palladium Complex as Potential Therapeutic Agents in the Treatment of Gynecological Cancers: Synthesis, Characterization, and Cytotoxicity” (Pharmaceutics, 2024)

How the values were obtained:
Type in all cases: cell-based
[1] = tested on: HeLa (human cervical adenocarcinoma cells); assay: MTT viability assay, 72 h; conditions: mean ± SD of three experiments
Description: (§1) HeLa (human cervical adenocarcinoma cells), A2780 (human ovarian carcinoma cells), MCF7 (human breast adenocarcinoma cells), and HCT116 (human colorectal carcinoma cells) were purchased from American Type Culture Collection (ATCC, Rockville, MD, USA). HeLa, MCF-7, and HCT116 cells were cultivated in HEPES-buffered RPMI-1640, while A2780 cells were cultivated in DMEM. The media were supplemented with 10% heat-inactivated FBS and antibiotics (100 units/mL penicillin and 100 μg/mL streptomycin). The cells were grown at 37 °C in a humidified atmosphere with 5% CO2. For the viability assays, HeLa (3 × 10^3/well), A2780 (8 × 10^3/well), MCF7 (7 × 10^3/well), and HCT116 (6 × 10^3/well) cells were seeded in adherent flat-bottom 96-well plates. For the flow cytometric analyses, HeLa cells were seeded at 8 × 10^4 in 6-well plates.
(§2) The cells were treated with a range of CL, CC, and cisplatin concentrations for 72 h. At the end of the treatment, the cell viability was determined using MTT and crystal violet assays, as previously described. PECs were seeded at a density of 1.8 × 10^5 cells/well in 96-well plates, and two hours later, non-adherent cells were removed by washing the wells with PBS. The remaining adherent cells were treated the same way as the tumor cells. The PEC viability was estimated after 72 h of treatment using the CV assay only.

[2] = tested on: A2780 (human ovarian carcinoma cells); assay: MTT viability assay, 72 h; conditions: A2780, 72 h, mean ± SD
Description: as §1, §2

[3] = tested on: HeLa (human cervical adenocarcinoma cells); assay: Crystal violet (CV) viability assay, 72 h; conditions: rounded IC50 used as treatment dose, assay not stated (matches CV), read-out: IC50 values on HeLa cells as used for flow cytometry treatment
Description: as §1, §2

[4] = tested on: A2780 (human ovarian carcinoma cells); assay: Crystal violet (CV) viability assay, 72 h; conditions: A2780, 72 h, mean ± SD
Description: as §1, §2

Q: How did the IC50 [1] turn out when N.N.[Cl][Pt][Cl] [Cisplatin, cisplatin, reference compound] was run?
A: 500 nM

Q: What about the IC50 [2] of the same molecule?
A: 2800 ± 200 nM

Q: What about the IC50 [3] of the same molecule?
A: 500 nM

Q: What about the IC50 [4] of the same molecule?
A: 2300 ± 200 nM
